Laboratory results from the supplement of paper PMC12823440, “Inhibitors supercharge kinase turnover through native proteolytic circuits” (Nature, 2025).
Counter-ions that a name gives are not always drawn. The list shows a part of the results. Hit calls seldom repeat between salt and free forms of one compound.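 Kinases, fused to nanoluciferase, were expressed in K562 cells; luminescence was measured every 4 h from 2 to 18 h as percent of control (DMSO = 100%, positive control = 0%). A time point is decreased if signal falls significantly (2 sigma). Hits were called by the authors by a rule that is not shown; the count of time points alone does not decide it.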

By UniProt entry, the sequences of proteins in these tests, tags left out. Where a name states a change or a piece, a line headed by the entry shows the natural chain unless it says otherwise.
UniProt Q9UM73: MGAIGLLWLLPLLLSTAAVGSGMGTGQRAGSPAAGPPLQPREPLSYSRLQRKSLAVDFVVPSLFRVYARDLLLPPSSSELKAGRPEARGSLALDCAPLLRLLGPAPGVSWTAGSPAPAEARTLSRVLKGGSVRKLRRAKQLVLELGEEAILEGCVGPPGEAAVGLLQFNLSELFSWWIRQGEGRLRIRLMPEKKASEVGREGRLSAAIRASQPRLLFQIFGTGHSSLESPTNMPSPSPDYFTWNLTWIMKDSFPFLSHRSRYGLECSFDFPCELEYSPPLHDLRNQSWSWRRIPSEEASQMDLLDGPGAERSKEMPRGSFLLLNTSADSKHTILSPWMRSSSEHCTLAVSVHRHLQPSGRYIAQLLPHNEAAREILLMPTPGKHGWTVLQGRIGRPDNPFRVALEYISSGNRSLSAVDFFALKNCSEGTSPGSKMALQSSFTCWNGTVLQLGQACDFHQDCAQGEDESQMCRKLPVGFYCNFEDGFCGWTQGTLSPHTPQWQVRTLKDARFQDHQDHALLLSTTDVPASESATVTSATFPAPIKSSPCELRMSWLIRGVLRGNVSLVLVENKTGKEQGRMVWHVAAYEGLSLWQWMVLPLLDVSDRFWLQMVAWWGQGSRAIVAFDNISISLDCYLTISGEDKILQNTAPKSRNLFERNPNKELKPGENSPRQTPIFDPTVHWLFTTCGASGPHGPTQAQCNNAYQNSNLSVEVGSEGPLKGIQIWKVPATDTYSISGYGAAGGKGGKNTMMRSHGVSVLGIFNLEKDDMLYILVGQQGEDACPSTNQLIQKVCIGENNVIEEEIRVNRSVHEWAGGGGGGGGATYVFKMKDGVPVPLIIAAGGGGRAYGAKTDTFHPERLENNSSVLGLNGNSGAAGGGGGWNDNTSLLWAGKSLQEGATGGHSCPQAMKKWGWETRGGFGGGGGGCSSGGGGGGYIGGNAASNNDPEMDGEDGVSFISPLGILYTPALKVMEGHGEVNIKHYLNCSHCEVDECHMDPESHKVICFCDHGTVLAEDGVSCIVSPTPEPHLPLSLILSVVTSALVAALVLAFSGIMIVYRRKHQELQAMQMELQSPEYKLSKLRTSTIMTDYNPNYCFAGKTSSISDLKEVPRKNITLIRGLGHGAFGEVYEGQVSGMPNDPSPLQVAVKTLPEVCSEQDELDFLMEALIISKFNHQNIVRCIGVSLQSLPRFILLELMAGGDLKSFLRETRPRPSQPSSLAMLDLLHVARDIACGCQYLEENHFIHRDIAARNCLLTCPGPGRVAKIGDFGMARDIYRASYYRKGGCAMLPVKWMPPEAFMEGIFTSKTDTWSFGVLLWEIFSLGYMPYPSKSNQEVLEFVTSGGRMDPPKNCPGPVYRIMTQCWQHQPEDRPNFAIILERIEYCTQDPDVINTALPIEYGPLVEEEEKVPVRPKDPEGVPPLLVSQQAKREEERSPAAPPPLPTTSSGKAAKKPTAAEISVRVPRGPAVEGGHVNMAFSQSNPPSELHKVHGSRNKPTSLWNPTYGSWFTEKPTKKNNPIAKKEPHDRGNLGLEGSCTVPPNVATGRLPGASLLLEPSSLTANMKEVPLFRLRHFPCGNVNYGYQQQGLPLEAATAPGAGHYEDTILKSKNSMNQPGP
UniProt P10398: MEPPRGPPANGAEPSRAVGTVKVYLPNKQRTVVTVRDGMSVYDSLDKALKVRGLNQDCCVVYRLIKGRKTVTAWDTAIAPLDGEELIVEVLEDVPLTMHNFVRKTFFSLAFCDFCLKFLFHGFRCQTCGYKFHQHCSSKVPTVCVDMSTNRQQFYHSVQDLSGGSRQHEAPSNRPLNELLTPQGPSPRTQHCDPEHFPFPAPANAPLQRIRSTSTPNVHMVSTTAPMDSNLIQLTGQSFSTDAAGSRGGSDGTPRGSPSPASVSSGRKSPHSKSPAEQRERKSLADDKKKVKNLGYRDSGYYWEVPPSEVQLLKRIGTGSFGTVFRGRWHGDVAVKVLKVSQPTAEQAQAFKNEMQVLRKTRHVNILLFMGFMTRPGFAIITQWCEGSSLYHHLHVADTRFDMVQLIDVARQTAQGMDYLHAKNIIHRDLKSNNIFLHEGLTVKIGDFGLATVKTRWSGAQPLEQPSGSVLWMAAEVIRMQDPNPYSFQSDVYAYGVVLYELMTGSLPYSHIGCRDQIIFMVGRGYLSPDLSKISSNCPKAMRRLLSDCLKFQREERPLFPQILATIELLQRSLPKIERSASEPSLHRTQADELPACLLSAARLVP

biological target: ALK (UniProt Q9UM73); test: number of time points (of 5) at which kinase-Nluc abundance scored as decreased, DMSO-normalised (count); higher = more persistent destabilization; settings: K562; 2-18 h

| Structure (SMILES) | number of time points |
| --- | --- |
| C[C@H](Nc1ncnc2[nH]cnc12)c1cc2ccc(F)cc2nc1-c1ccccn1 (10 µM) | 0 |
| CN(C)CCC=C1c2ccccc2CCc2ccccc21 [Amitriptyline (hydrochloride)] (2.5 µM) | 0 |
| O=C1/C(=C\c2ccc(Cl)cc2)C=C(c2ccccc2)N1c1ccc(O)cc1 (2.5 µM) | 0 |
| C[C@@H]1CCNC(=O)c2cc3ccc(C(=O)Nc4nc5ccccc5n4CCCN(C)C)cc3n21 (10 µM) | 0 |
| COc1c(Nc2cc(C)[nH]n2)nc(Sc2ccc(S(=O)(=O)Cc3cccc([N+](=O)[O-])c3F)cc2F)nc1N1CCCCC1 [Centrinone-B] (2.5 µM) | 0 |
| COc1ccc(/C=C/C(=O)C2(C(=O)/C=C/c3ccc(OC)c(OC)c3)CCCCC2)cc1OC (2.5 µM) | 0 |
| CN(C)c1nc2c(Br)c(Br)c(Br)c(Br)c2[nH]1 (10 µM) | 0 |
| O=C(Nc1nc(=O)n(Cc2ccc(Cl)cc2)s1)c1ccc(Cl)cc1 (10 µM) | 0 |
| Nc1n[nH]c2nc(-c3ccc(NS(=O)(=O)c4cc(Cl)ccc4F)cc3)cnc12 (10 µM) | 0 |

biological target: ARAF (UniProt P10398); test: as above; settings: K562; 2-18 h

| Structure (SMILES) | number of time points |
| --- | --- |
| CN1CC[C@@H](c2c(O)cc(O)c3c(=O)cc(-c4ccc(C(F)(F)F)cc4Cl)oc23)[C@@H]1CO [Voruciclib (hydrochloride)] (10 µM) | 0 |
| O=c1cc(-c2cccc3c2Sc2ccccc2S3)oc(N2CCOCC2)c1 (10 µM) | 0 |
| O=[N+]([O-])c1ccc(Nc2nc(N3CCOCC3)nc(N3CCOCC3)n2)cc1 (10 µM) | 0 |
| c1ccc(-c2nc(=NCCN3CCOCC3)sn2-c2ccccc2)cc1 [VP3.15 (dihydrobromide)] (10 µM) | 0 |
| Nc1nc(N)c2nc(-c3cccc(O)c3)cnc2n1 (10 µM) | 0 |
| Nc1ncnc2c1c(-c1ccc(Oc3ccccc3)cc1)nn2C1CCN(CCOCCOCCOc2ccc3c(c2)CN(C2CCC(=O)NC2=O)C3=O)CC1 (configuration not stated) (2.5 µM) | 0 |
| C=CC(=O)N1C[C@H](COc2nc(Nc3cnn(C)c3)nc3[nH]cc(Cl)c23)[C@@H](OC)C1 (2.5 µM) | 0 |
| Cc1nn(C)c2c1C(c1ccc(C(F)(F)F)cc1)C(C#N)=C(N)O2 (configuration not stated) (10 µM) | 0 |
| O=C(NC1CCOCC1)c1ccc(-c2cc(-c3c[nH]nc3-c3ccccn3)ccn2)cc1 (10 µM) | 0 |
| CC/C(=N\NC(=O)c1ccnc(NCCCN2CCOCC2)c1)c1ccc(Cl)cc1O (2.5 µM) | 0 |
| COc1cc(N2CCOCC2)ccc1Nc1ncc(Cl)c(Nc2ccccc2NS(C)(=O)=O)n1 (2.5 µM) | 0 |
| Cn1cnc([N+](=O)[O-])c1C[N+](C)(C)C/C=C/C(=O)Nc1cc2c(Nc3ccc(Cl)c(Br)c3)ncnc2cn1 [Tarloxotinib (bromide)] (10 µM) | 0 |
| O=C(Nc1cccc(C(F)(F)F)c1)c1cccc2cc(Oc3cc(CO)ncn3)ccc12 (10 µM) | 0 |
| Oc1ccc(/C=C/c2cc(O)cc(O)c2)cc1 [Resveratrol] (10 µM) | 0 |
| O=c1[nH]c(C2CCCN2)nc2c1oc1ccc(Cl)cc12 (configuration not stated) [XL413 (hydrochloride)] (10 µM) | 0 |
| CN(c1ccc(NC(=O)Nc2ccc(OC(F)(F)F)cc2)cc1)c1ccnc(Nc2cccc(S(N)(=O)=O)c2)n1 (2.5 µM) | 0 |
| C=C[C@@](C)(/C=C/c1ccc(O)cc1)CCC=C(C)C [Bakuchiol] (10 µM) | 0 |
| COc1cc2ncnc(-n3nc(-c4ccccn4)nc3N)c2cc1OC (10 µM) | 0 |
| CNc1nc(Nc2ccc(C(=O)N3CCOCC3)cc2OC)ncc1Cl (2.5 µM) | 0 |

| Structure (SMILES) | number of time points |
| --- | --- |
| CC(C)S(=O)(=O)c1ccc2nccc(Nc3ccc4scnc4c3)c2c1 (10 µM) | 0 |
| CC(C)(O)[C@H]1CC[C@H](Nc2ccc3ncc(-c4cccc(C(F)(F)F)c4)n3n2)CC1 (10 µM) | 0 |
| CCN(CC)c1ccc2cc(-c3nc4cc(C)ccc4o3)c(=O)oc2c1 (10 µM) | 0 |
| CN(C)S(=O)(=O)c1ccc2c(c1)/C(=C/c1cc3c([nH]1)CCCC3)C(=O)N2 (2.5 µM) | 0 |
| C=CC(=O)Nc1cc(Nc2nccc(-n3cc(CN(C)C)c(-c4ccccc4)n3)n2)c(OC)cc1N1CCOCC1 [Lazertinib] (10 µM) | 0 |
| Cc1ccc2c(Nc3cccc(Cl)c3F)nccc2c1NC(=O)c1csc2c(N)ncnc12 [Belvarafenib] (10 µM) | 0 |
| Oc1cc(O)c2c(c1)OC1(c3ccc(O)c(O)c3)Oc3cc(O)c4c(c3C2C1O)OC(c1ccc(O)c(O)c1)C(O)C4 (configuration not stated) [Procyanidin A1] (10 µM) | 0 |
| c1ccc(-c2nc3c(c(-n4ccc5cnccc54)n2)CCC3)nc1 (10 µM) | 0 |
| Cc1cc(C)nc(NS(=O)(=O)c2ccc(NC(=S)NC(=O)COc3ccc(Br)cc3Cl)cc2)n1 (2.5 µM) | 0 |
| Cc1ccc(NC(=O)c2ccc(CN(CCN(C)C)C(=O)c3cccnc3)cc2)cc1Nc1nccc(-c2cccnc2)n1 [PDGFRα kinase inhibitor 1] (10 µM) | 0 |
| C[C@H](Nc1ncnc2[nH]cnc12)c1cc2ccc(F)cc2nc1-c1ccccn1 (10 µM) | 0 |
| CN(C)CCC=C1c2ccccc2CCc2ccccc21 [Amitriptyline (hydrochloride)] (2.5 µM) | 0 |
| O=C1/C(=C\c2ccc(Cl)cc2)C=C(c2ccccc2)N1c1ccc(O)cc1 (2.5 µM) | 0 |
| C[C@@H]1CCNC(=O)c2cc3ccc(C(=O)Nc4nc5ccccc5n4CCCN(C)C)cc3n21 (10 µM) | 0 |
| COc1c(Nc2cc(C)[nH]n2)nc(Sc2ccc(S(=O)(=O)Cc3cccc([N+](=O)[O-])c3F)cc2F)nc1N1CCCCC1 [Centrinone-B] (2.5 µM) | 0 |
| COc1ccc(/C=C/C(=O)C2(C(=O)/C=C/c3ccc(OC)c(OC)c3)CCCCC2)cc1OC (2.5 µM) | 0 |
| CN(C)c1nc2c(Br)c(Br)c(Br)c(Br)c2[nH]1 (10 µM) | 0 |
| O=C(Nc1nc(=O)n(Cc2ccc(Cl)cc2)s1)c1ccc(Cl)cc1 (10 µM) | 0 |
| Nc1n[nH]c2nc(-c3ccc(NS(=O)(=O)c4cc(Cl)ccc4F)cc3)cnc12 (10 µM) | 0 |
